Test results published in article PMC5548745, “Agonist-induced dimer dissociation as a macromolecular step in G protein-coupled receptor signaling” (Nature Communications, 2017).
Substitutions are numbered along the chain they refer to. Names may count otherwise. These are yes or no findings as the source states them, for the method shown. Some results given as binding are weak or reduced against the parent protein; the word gives no strength. For some assays here: Tags and fused reporters may be left off the sequences shown.

Amino acid sequences for entries named in this document (tags omitted).
UniProt P63096: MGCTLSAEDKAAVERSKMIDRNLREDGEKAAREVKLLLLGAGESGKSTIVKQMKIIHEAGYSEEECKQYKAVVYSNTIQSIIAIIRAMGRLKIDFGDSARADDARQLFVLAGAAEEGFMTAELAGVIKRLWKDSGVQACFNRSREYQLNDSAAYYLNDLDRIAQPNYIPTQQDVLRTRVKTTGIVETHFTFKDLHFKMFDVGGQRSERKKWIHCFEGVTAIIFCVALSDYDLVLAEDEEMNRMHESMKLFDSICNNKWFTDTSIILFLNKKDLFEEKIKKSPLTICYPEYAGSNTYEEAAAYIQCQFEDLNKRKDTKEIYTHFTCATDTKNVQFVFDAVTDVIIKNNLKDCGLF

T1: FZD6-mCherry dimer mutant (D365A, R368A, Y369A) (human) (UniProt O60353)
T1 sequence: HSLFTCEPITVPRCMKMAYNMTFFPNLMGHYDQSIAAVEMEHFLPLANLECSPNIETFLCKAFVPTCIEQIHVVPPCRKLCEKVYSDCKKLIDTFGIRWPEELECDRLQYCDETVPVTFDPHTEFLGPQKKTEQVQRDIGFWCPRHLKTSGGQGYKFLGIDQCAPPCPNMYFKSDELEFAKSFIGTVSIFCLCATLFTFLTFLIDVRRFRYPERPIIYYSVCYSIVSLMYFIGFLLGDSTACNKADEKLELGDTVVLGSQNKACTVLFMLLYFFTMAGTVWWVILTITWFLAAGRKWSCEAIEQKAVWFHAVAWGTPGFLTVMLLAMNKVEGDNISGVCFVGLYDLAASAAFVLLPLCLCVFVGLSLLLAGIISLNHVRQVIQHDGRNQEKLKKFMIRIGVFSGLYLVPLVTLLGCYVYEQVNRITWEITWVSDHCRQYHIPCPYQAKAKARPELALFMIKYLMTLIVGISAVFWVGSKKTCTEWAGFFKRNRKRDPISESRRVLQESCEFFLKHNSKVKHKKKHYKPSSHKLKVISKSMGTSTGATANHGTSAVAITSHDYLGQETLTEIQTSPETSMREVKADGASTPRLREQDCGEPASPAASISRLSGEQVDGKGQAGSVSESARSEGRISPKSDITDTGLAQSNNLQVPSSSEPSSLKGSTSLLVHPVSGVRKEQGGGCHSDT

T2: Frizzled 6 (FZD6), wild type, expressed as V5-FZD6-mCherry and as FZD6-GFP (human) (UniProt O60353)
T2 sequence: T1 sequence with A347D, A350R, A351Y

B1: Frizzled 6 (FZD6), wild type, expressed as V5-FZD6-mCherry and as FZD6-GFP (receptor, human, UniProt O60353 19-706, looked up)
chain: T1 sequence with A347D, A350R, A351Y
notes: Frizzled 6 (FZD6), human, Uniprot ID O60353; Two differently tagged copies of the same receptor are tested against each other, so they are written as one molecule; The FCS experiment used FZD6-GFP alone; also called FZD6 wt; source: HEK293, transiently transfected (Lipofectamine 2000), in living cells; not shown: V5 (on the crosslinked copy), N-terminal, kept; mCherry (on the crosslinked copy), …
B2: FZD6-GFP dimer control mutant (D365E, R368K, Y369F) (receptor, UniProt O60353 19-706)
chain: T1 sequence with A347E, A350K, A351F
B3: FZD6 F337A mutant (receptor, UniProt O60353 19-706)
chain: T1 sequence with F319A, A347D, A350R, A351Y

Experiments:
[1] = biological target: T1, FZD6-mCherry dimer mutant (D365A, R368A, Y369A) (human); experiment: dual color FRAP (dcFRAP) with chemical surface crosslinking; living HEK293 cells; FZD6 dimer mutant (mCherry) immobilised by chemical surface crosslinking; mobile fraction of the GFP-tagged intracellular partner
[2] = biological target: T2, Frizzled 6 (FZD6), wild type, expressed as V5-FZD6-mCherry and as FZD6-GFP (human); experiment: dual color FRAP (dcFRAP) with antibody surface crosslinking; living HEK293 cells; V5-FZD6-mCherry immobilised at the surface with biotinylated anti-V5 antibody and avidin; mobile fraction of the co-expressed GFP construct before and after crosslinking; BE buffer, RT; also done with pan-DVL siRNA, with overexpressed DVL2-MYC, and 10-20 min after WNT-5A (300 ng ml^-1)
[3] = biological target: T2, Frizzled 6 (FZD6), wild type, expressed as V5-FZD6-mCherry and as FZD6-GFP (human); experiment: dual color FRAP (dcFRAP) with antibody surface crosslinking; as a1, with co-transfected HA-tagged TM1 (control) or TM5 minigene
[4] = biological target: T2, Frizzled 6 (FZD6), wild type, expressed as V5-FZD6-mCherry and as FZD6-GFP (human); experiment: fluorescence cross-correlation spectroscopy (FCCS); living HEK293 cells co-expressing FZD6-GFP and V5-FZD6-mCherry at low levels (10-1000 receptors per µm^2), no crosslinking; dynamic measurements before and after WNT-5A (300 ng ml^-1)
[5] = biological target: T2, Frizzled 6 (FZD6), wild type, expressed as V5-FZD6-mCherry and as FZD6-GFP (human); experiment: fluorescence correlation spectroscopy (FCS), transit diffusion time; living HEK293 cells expressing one GFP-tagged construct; porcupine inhibitor C59 5 µM overnight

| Molecule | binding [2] | binding [3] | further results |
| --- | --- | --- | --- |
| Gαi1-GFP (from UniProt P63096 1-354) | – | – | binding [1]: no binding |
| B1 | binds | binds | binding [4]: binds; binding [5]: binds |
| KKLDASRYFVLLPLCLCVFVGLSLLLAGIISKKK [HA-tagged TM5 minigene of FZD6] | – | binds | – |
| B2 | binds | – | – |
| B3 | binds | – | – |
